Library screen at single concentrations

Amino acid sequences for entries named in this document (tags omitted). Residues count along the entry.
UniProt A4I591, 1-473: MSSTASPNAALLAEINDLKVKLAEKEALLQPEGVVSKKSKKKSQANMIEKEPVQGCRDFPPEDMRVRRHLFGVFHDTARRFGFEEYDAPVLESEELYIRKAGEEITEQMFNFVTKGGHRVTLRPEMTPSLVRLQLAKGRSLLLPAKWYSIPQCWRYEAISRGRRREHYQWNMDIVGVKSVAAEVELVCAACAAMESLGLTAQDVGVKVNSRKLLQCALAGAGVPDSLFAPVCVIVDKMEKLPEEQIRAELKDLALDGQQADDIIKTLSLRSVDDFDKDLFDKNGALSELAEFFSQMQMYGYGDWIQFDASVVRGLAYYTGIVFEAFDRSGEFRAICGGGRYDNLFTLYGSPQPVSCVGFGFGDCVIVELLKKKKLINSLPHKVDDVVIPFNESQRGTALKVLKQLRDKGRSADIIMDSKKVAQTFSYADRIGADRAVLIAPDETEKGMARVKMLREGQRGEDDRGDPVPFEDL

A: 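Assay of Toxoplasma gondii numbers, read through their beta-galactosidase reporter with a colour substrate. Compounds at 10 µM. Higher reads as fewer parasites (inferred from which compounds were picked for retests). Of about 67,000 compounds tested this way, about 260 (0.38%) reached 50% or more in at least one test.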
B: 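Histidine-tRNA ligase, Leishmania infantum (UniProt A4I591). Enzyme assay of histidyl-tRNA synthetase; the read-out is not stated. Compounds at 30 µM. Higher reads as stronger inhibition (inferred: compounds with an IC50 in retests scored well above the rest). The assay is labelled LdHisRS but filed under L. infantum. About 69,000 compounds were tested under these conditions; 0.6% (about 410) showed 50% or more at least once.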

The filed quantity is “Percent Effect” (%).
The record does not define 0% and 100%; most values in the screen are far below 50% and negative numbers occur (in some assays of this library far below -100).
Compounds were drawn at random from those tested, without regard to their results.
A dash means the value is not listed here; it may have been measured.

Compound,A,B
O=C(O)C(F)(F)F.[H][C@]12CCN(Cc3ccc(C)s3)CC[C@]1([H])N(S(C)(=O)=O)CCO2,1.987,-
[H][C@]12CNC[C@@]1(C(=O)NCCc1ncccc1C)CN(S(C)(=O)=O)C2,2.709,-
CCCn1nc2c(cc1=O)CN(CC1CCCCO1)CC2 (centres undefined),-0.3785,79.45
Cc1cc(C)n(CC2CCCN2C(=O)Cc2c(C)nc(C)[nH]c2=O)n1 (centres undefined),-7.112,0.8772
CN(C)C(=O)CN1CCOCC2(C1)CN(c1ncccn1)CCO2.O=C(O)C(F)(F)F (centres undefined),-1.667,-
COCCN1CCN(CCCS(=O)(=O)c2ccccc2)CC1C (centres undefined),7.431,6.154
NC(=O)[C@@H]1CCCN1C(=O)c1csc(-c2ccc(C(F)(F)F)cc2)n1,-12.82,8.197
COCCn1c2c(ccc1=O)CCN(Cc1ccoc1)CC2,-17.91,13.83
COCCN(C)C1COC2(CCN(Cc3ccccn3)CC2)C1 (centres undefined),-,-9.091
O=C(O)C(F)(F)F.[H][C@@]12C[C@H](C(=O)Nc3ccccc3)[C@@]([H])(CN(CCC(C)C)C1)O2,16.78,-
Cc1cccc(CN2CCCC3(Cc4ccccc4CNC3=O)C2)n1 (centres undefined),-3.497,13.79
CS(=O)(=O)NCC1CCCN(C(=O)Nc2cccnc2N2CCCC2)C1 (centres undefined),-1.559,20
CCN(CC)CCNC(=O)CCc1c(C)nn(-c2ccccc2Br)c1C,7.341,-3.96
CC(C)(C)c1cnc(CN2CCC[C@H]2CO)o1,-0.6353,16.44
CC(NC(=O)NCCCc1n[nH]c(N)c1C#N)c1cccc(Cl)c1 (centres undefined),-20.64,10.17
Cc1cc(C(=O)N2CCCCC2c2nc3cc(F)ccc3[nH]2)no1 (centres undefined),20.69,6.173
Cc1ncnc2c1CCN(C(=O)CN(C)C)CC2.O=C(O)C(F)(F)F,0.8189,-
COc1ccc(C2CCCN2C(=O)NCCNc2ncccn2)cc1 (centres undefined),1.423,7.692
CCN(CC)C(=O)c1ccn(COc2ccc(F)cc2)n1,10.3,13.79
Cc1noc(C)c1CN1CC2(CCN(C(=O)c3ccoc3C)C2)CC1=O (centres undefined),14.6,24.32
Cc1n[nH]cc1CNCC(c1cccc(F)c1)N(C)C (centres undefined),-5.256,12.07
CC(C)N1C[C@@H]2CN(C(=O)NCc3ccccc3)CCC[C@]2(C(=O)O)C1,-,20
CN1C[C@@H](C(=O)N2CCOCC2)[C@@]2(CCc3ccccc3C(=O)N2)C1,-3.035,11.43
COCC(=O)N1Cc2cnc(Cc3ccc(OC)cc3)nc2C1,-0.6568,19.23
O=S1(=O)NC(c2ccnc(N3CCCCC3)n2)=Nc2ccccc21,18.06,-1.429
c1ccc(Cc2nnc(CN3CCOC(Cn4cccn4)C3)o2)cc1 (centres undefined),4.279,8.475
CCN(CC)S(=O)(=O)N1CCC(c2c(C(N)=O)sc3ccccc23)C1 (centres undefined),6.941,11.43
CC(C)C[C@H](Nc1nc(C2CCCC2)nc2c1cnn2C)C(N)=O,-0.9346,4.255
CN(C)Cc1ccc(C2CCCCN2C(=O)c2cccnn2)cc1 (centres undefined),3.373,16.67
COc1ccccc1CNC(=O)CNc1ccccc1C(C)=O,12.43,22.12
COc1ccc(C2CCCN2S(=O)(=O)N(C)C)cc1 (centres undefined),26.3,15.93
Cn1ccc(C(=O)N2CCCC(n3cncn3)C2)cc1=O (centres undefined),4.076,10.67
CCc1cnc(N2CCN(Cc3ccon3)CC2)s1,11,21.13
NC(=O)CCN1CCc2onc(-c3ccccc3F)c2C1,-29.82,15.66
CC(C)NC(=O)CN(C)C(=O)c1c(Cl)c2ccccc2n1C,-4.162,27.63
CC(Nc1cnn(C)c(=O)c1Cl)c1ccc(F)cc1 (centres undefined),-15.29,10
CC(=O)NCCc1cc2nc(-c3ccncc3)ccn2n1,-10.05,4.196
COCC(=O)Nc1ccccc1-c1ccc(=O)n(C)n1,-1.544,5.217
Cc1cnn(CC2CN(Cc3cccc(C(N)=O)c3)CCO2)c1 (centres undefined),2.583,8.696
CCn1cnnc1CNC(=O)N1CCN(c2nccs2)CC1,4.964,13.91
O=C(O)C(F)(F)F.[H][C@]12CC[C@@]3(N=C(CC)NC3=O)[C@@]1([H])CN(Cc1ccc(Cl)cc1)C2,-3.819,-
CCO[C@@H]1CC[C@H]2[C@H]1OCCN2C(=O)c1nn(C)c2ccccc12,-,0
CC(=O)N(Cc1ncc(C(C)C)o1)C1CCN(CC2CCC2)C1 (centres undefined),1.668,22.02
[H][C@@]12CCCO[C@]1([H])[C@H](N(CC)CC)CN2Cc1ccc(C)o1,-5.266,-
CNC(=O)CC1CC2(CCNCC2)c2cc(F)ccc21 (centres undefined),4.977,13.86
CN(Cc1ccco1)C(=O)CN1CCCC1c1cccs1 (centres undefined),-0.6923,1.587
COCCc1noc(Cn2ccc3ncccc3c2=O)n1,-8.379,13.11
COCCC1(CNC(=O)Nc2ccc(-n3cccn3)cc2)CCC1,2.197,3.54
CCc1nc(CN2CCCC(NCc3nnc(C4CC4)n3C)C2)no1 (centres undefined),-10.41,13.27
COc1cccc(Cn2ncc(N(C)CCc3ccccc3)cc2=O)c1,-12.16,16.13
CNC(=O)C1Cn2ccnc2C2(CCN(Cc3ccncc3)CC2)O1 (centres undefined),-,10
Cn1nc(Cn2ccnc2)c2c1CN(Cc1ccoc1)C2.O=C(O)C(F)(F)F.O=C(O)C(F)(F)F,0.1596,-
Cn1nc(C2CCCN(Cc3ccccc3)C2)c2nccnc21 (centres undefined),-,22.68
O=C(CC1CCC1)N1CCCC(CO)(CC2CC2)C1 (centres undefined),-3.755,8.163
Cc1cc(C(=O)N2C[C@@H](CN3CCOCC3)C[C@H](CO)C2)nc(C)n1,-0.4369,11.83
CCc1ccc(NC(=O)CC2Cn3ncnc3NC2=O)cc1 (centres undefined),2.132,12.41
Cc1nc2ccccc2n1CCNCc1cccc(C#N)c1,12.92,24.39
Cn1ccnc1C(O)c1ccccc1N1CCN(CC2CCCC2)CC1 (centres undefined),-1.233,1.399
Nc1nc(CCCNC(=O)c2ccc(C3CCCNC3)cc2)cs1 (centres undefined),1.897,7.292
COc1ccc(C(CNC(=O)Nc2cn[nH]c2)N2CCOCC2)cc1 (centres undefined),6.556,21.33
O=C(O)C(F)(F)F.[H][C@@]12COC[C@@H](CC(=O)NCCOC)[C@]1([H])CN(CC1CCOCC1)C2,13.75,-
CCOCC(=O)N1CCC(c2cc3ncccc3c(O)n2)CC1,-20.81,4.828
CN1CC(=O)N(c2ccccc2)CC12CCN(Cc1nccs1)C2.O=C(O)C(F)(F)F.O=C(O)C(F)(F)F (centres undefined),1.923,-
CCNc1ncc(C(=O)N(C)Cc2nc3ccccc3n2C)cn1,-0.06242,2.618
CCOc1ncccc1CNC(=O)Nc1ccc(N(C)C)nc1,2.781,0
CNS(=O)(=O)c1ccc(CNC(=O)N(C)C(C)COC)cc1 (centres undefined),1.7,12.35
O=C(O)C(F)(F)F.[H][C@@]12CN(C(=O)c3ccsc3)C[C@]1([H])C(=O)N(Cc1cccc(C)n1)C2,5.07,-
COCCn1cc2c(n1)C(CNCc1ccc(F)cc1)OCC2 (centres undefined),-,3.846
COc1ccc(CN2CCCCC2Cn2nc(C)nc2C)cc1F (centres undefined),19.13,11.97
Cn1nc(CNc2ncccn2)c2c1CN(c1cnccn1)CC2,0.5557,11.71
CN(C)C(=O)COCC1CN(Cc2ccco2)Cc2ncn(C)c21 (centres undefined),-,20.75
Cl.c1cc(CNCc2ccnc(N3CCCC3)c2)c2c(c1)OCCO2,0.7928,-
Cc1ncc2c(n1)C1(CCN(C(=O)C3CC3)CC1)OCC2,-,9.859
COCCN1CCC(c2nc3c([nH]2)CC(C)(C)CNC3=O)C1 (centres undefined),19.06,-15.15
CN(C)[C@@H]1CCN(C(=O)Cc2cccs2)[C@H]1Cc1ccncc1.O=C(O)C(F)(F)F.O=C(O)C(F)(F)F,3.283,-
O=S(=O)(NCC1(O)CCCC1)c1ccccc1Br,-14.29,15.65
O=C(CN1CCCC1c1nc(-c2ccccn2)no1)N1CCNCC1 (centres undefined),0,15.62
Cc1n[nH]c(C)c1C(N)C(=O)NCCc1csc(C(C)C)n1 (centres undefined),14.96,18.99

Once more, the final 9:

{"compound": "Cn1nc(CNc2ncccn2)c2c1CN(c1cnccn1)CC2", "A": 0.5557, "B": 11.71}
{"compound": "CN(C)C(=O)COCC1CN(Cc2ccco2)Cc2ncn(C)c21", "stereo": "centres undefined", "B": 20.75}
{"compound": "Cl.c1cc(CNCc2ccnc(N3CCCC3)c2)c2c(c1)OCCO2", "A": 0.7928}
{"compound": "Cc1ncc2c(n1)C1(CCN(C(=O)C3CC3)CC1)OCC2", "B": 9.859}
{"compound": "COCCN1CCC(c2nc3c([nH]2)CC(C)(C)CNC3=O)C1", "stereo": "centres undefined", "A": 19.06, "B": -15.15}
{"compound": "CN(C)[C@@H]1CCN(C(=O)Cc2cccs2)[C@H]1Cc1ccncc1.O=C(O)C(F)(F)F.O=C(O)C(F)(F)F", "A": 3.283}
{"compound": "O=S(=O)(NCC1(O)CCCC1)c1ccccc1Br", "A": -14.29, "B": 15.65}
{"compound": "O=C(CN1CCCC1c1nc(-c2ccccn2)no1)N1CCNCC1", "stereo": "centres undefined", "A": 0, "B": 15.62}
{"compound": "Cc1n[nH]c(C)c1C(N)C(=O)NCCc1csc(C(C)C)n1", "stereo": "centres undefined", "A": 14.96, "B": 18.99}

Source: ChEMBL document CHEMBL3988442, “University of Dundee, Small-Polar-MMV Screening Library” (2021).